In the supplement of paper PMC10849652 one finds log2 fold change data, which are given here for 33 targets.

The chains behind the UniProt entries cited, without tags or fusion partners. Where a name states a change or a piece, a line headed by the entry shows the natural chain unless it says otherwise.
UniProt Q9H0H5: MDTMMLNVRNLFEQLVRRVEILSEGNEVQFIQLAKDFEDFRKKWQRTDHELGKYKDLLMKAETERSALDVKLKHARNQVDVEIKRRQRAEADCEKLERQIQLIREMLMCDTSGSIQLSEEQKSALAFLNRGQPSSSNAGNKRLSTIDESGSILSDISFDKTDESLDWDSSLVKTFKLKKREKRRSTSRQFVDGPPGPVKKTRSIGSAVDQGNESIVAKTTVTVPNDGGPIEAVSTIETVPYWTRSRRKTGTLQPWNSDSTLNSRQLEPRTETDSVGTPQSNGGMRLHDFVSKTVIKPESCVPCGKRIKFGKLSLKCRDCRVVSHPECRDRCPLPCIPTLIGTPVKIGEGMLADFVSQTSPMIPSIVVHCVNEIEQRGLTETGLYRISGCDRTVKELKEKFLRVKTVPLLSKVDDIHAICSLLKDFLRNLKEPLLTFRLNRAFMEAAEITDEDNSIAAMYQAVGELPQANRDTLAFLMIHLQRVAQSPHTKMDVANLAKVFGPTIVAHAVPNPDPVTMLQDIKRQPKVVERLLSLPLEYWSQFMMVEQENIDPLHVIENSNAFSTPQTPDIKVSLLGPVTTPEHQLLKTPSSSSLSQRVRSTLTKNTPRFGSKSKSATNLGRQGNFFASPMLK
UniProt O60671: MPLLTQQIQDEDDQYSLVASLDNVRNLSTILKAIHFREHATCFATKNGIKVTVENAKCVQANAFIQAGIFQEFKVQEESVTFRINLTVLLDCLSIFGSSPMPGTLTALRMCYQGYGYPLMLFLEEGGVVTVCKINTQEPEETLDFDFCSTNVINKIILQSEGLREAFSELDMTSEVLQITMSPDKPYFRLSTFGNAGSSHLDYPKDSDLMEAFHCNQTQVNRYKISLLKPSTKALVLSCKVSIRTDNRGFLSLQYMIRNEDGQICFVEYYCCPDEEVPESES
UniProt Q96S59, whole entry, looked up: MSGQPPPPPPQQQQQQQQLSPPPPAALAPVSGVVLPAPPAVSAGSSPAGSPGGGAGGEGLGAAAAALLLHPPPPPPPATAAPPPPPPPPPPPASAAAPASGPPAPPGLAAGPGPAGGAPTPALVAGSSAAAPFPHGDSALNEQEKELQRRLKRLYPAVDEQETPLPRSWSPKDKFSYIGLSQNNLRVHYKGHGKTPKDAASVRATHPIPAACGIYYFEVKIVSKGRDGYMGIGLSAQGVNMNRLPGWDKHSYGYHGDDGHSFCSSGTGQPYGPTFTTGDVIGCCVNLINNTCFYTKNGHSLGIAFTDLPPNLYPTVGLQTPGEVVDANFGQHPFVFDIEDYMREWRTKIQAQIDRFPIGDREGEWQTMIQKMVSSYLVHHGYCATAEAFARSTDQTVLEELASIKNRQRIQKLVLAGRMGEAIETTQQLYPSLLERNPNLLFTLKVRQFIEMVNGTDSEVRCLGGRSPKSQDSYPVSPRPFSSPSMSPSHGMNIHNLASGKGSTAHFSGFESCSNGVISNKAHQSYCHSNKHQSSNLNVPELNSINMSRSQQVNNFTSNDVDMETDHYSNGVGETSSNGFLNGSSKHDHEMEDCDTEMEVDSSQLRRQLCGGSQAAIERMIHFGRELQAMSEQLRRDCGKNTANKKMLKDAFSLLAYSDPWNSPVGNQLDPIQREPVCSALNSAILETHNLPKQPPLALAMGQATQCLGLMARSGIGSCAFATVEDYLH
UniProt O43502: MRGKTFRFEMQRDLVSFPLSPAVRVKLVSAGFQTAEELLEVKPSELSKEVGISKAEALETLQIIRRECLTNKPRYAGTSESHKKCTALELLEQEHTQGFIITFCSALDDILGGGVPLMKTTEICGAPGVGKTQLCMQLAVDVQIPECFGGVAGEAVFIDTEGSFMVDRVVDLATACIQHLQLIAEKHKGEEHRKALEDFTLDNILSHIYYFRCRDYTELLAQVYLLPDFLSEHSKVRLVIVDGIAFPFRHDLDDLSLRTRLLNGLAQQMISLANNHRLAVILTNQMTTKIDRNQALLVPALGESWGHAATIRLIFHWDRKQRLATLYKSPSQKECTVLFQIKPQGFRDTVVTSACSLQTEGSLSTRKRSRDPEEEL
UniProt O60518: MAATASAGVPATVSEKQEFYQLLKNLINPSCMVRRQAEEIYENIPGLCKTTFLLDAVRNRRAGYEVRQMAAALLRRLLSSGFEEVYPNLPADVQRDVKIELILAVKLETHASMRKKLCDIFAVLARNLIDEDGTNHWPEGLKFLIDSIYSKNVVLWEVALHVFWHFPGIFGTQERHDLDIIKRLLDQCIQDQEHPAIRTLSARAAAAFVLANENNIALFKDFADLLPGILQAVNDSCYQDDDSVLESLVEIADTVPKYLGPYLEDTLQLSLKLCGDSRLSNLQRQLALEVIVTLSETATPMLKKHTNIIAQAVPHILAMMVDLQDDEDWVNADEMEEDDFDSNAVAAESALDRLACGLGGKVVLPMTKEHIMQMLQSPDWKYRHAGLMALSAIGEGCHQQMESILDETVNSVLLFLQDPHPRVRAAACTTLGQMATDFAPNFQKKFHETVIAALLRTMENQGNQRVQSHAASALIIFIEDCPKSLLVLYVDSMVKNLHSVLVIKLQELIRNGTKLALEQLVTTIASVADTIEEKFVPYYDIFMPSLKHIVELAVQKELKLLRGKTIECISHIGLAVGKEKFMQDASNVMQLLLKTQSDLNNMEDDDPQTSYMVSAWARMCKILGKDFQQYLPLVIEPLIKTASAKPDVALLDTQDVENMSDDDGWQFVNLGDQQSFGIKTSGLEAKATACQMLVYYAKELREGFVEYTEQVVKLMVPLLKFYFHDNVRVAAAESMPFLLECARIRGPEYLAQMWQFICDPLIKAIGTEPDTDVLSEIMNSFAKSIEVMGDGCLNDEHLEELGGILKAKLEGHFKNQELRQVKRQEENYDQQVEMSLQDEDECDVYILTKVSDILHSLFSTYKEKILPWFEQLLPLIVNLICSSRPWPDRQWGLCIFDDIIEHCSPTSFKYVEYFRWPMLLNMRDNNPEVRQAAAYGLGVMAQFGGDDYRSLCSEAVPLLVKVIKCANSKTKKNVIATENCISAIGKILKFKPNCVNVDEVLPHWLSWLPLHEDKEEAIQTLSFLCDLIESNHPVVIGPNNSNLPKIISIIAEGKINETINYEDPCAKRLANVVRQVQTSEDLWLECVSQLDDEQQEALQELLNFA
UniProt Q9UI14, whole entry, looked up: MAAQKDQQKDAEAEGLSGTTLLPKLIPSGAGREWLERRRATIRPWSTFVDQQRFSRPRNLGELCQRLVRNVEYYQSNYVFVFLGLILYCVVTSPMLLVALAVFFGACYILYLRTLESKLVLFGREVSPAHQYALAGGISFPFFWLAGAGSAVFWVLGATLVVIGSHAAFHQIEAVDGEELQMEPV
UniProt Q9NRW1: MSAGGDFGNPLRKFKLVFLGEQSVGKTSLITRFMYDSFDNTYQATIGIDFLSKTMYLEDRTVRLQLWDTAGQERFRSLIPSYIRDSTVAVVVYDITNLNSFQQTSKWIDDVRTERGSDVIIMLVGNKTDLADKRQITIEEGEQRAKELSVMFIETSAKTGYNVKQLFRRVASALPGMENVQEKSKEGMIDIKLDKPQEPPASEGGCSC
UniProt P20339: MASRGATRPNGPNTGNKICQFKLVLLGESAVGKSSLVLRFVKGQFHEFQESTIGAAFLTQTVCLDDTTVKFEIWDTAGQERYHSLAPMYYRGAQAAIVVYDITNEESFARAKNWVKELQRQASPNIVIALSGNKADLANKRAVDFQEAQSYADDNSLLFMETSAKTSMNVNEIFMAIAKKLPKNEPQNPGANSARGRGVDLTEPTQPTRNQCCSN
UniProt Q969Q5: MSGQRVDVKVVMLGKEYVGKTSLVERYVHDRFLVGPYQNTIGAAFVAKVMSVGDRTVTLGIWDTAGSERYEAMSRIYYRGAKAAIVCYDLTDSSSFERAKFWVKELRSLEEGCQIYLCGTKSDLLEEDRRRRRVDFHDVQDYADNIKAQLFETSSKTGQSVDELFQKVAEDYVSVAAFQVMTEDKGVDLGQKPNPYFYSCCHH
UniProt Q9Y3L5: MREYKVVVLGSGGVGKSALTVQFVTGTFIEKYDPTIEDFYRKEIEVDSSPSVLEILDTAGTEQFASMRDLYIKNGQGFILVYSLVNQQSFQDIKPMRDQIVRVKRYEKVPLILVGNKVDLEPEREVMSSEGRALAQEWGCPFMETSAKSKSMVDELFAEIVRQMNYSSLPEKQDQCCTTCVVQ
UniProt P47736: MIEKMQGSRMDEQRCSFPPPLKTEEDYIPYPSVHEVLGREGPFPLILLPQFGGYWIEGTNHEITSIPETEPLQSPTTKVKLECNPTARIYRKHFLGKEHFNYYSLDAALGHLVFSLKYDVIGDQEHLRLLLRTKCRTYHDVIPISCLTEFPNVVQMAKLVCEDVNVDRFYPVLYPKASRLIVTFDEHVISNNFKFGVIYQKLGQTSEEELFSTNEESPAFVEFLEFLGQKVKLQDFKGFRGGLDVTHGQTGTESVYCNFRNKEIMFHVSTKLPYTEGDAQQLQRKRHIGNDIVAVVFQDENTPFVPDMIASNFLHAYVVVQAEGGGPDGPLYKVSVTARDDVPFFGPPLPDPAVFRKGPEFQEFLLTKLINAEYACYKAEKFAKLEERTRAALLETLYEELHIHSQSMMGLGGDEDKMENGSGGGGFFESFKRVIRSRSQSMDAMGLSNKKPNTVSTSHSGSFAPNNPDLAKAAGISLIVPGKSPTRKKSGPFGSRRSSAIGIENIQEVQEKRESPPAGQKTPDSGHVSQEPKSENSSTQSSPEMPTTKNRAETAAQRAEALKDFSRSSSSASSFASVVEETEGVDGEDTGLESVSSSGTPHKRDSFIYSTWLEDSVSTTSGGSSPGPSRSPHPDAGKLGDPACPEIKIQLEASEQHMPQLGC
UniProt Q06609, whole entry, looked up: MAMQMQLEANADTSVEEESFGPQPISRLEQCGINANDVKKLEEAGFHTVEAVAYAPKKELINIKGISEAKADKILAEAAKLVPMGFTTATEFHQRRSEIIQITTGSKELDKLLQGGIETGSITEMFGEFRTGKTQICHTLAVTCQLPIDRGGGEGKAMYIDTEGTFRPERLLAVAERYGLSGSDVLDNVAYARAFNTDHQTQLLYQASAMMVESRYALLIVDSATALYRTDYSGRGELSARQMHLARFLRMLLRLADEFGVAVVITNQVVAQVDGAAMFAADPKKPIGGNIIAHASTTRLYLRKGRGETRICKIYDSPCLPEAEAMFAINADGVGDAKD
UniProt P54727: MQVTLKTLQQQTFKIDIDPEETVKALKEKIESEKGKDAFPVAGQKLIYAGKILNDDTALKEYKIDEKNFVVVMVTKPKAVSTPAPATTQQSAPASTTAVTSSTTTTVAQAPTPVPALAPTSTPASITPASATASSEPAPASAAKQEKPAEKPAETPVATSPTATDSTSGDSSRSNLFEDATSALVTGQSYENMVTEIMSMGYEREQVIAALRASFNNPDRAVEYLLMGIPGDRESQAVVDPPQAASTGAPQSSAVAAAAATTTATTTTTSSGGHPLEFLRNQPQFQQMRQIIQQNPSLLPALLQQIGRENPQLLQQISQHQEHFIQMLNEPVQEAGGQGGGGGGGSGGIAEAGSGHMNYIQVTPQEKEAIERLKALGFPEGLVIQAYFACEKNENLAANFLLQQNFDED
UniProt P10114: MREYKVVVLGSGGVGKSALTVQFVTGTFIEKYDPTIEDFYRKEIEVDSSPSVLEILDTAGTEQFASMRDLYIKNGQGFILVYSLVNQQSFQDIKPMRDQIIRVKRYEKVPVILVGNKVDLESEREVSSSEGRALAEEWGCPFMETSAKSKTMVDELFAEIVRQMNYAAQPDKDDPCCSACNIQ
UniProt Q9H0R6: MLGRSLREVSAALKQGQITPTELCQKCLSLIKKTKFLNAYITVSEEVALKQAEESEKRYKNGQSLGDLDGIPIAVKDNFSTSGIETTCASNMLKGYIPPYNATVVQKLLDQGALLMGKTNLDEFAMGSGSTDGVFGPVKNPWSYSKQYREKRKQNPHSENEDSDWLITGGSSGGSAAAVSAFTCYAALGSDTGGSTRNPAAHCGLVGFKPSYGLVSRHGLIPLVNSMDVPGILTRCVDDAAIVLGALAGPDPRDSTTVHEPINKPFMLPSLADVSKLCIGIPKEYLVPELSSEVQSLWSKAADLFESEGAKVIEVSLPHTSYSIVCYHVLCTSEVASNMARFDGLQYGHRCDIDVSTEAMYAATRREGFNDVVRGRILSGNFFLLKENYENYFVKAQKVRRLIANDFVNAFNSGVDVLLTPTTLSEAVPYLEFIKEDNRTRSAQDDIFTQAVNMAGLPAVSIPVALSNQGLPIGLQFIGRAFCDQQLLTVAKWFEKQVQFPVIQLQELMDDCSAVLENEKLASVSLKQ
UniProt P62834: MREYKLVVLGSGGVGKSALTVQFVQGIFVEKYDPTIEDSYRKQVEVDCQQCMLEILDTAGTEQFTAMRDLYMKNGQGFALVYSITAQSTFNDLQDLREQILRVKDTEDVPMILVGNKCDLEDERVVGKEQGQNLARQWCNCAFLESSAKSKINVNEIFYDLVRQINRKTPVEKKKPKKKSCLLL

The other results are listed elsewhere or left out.

Compound in the first assay: C=CC(=O)N1CCC[C@@H](n2nc(-c3ccc(Oc4ccccc4)cc3)c3c(N)ncnc32)C1 [ibrutinib]
Put plainly: log2 fold change, soluble protein after heating vs DMSO (PISA); higher = thermal stabilisation; K562 lysate, 10 uM; active = over 0.2 and 3.5 SD of the protein, either way, in both replicates (recomputed). The method in brief: (§1)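 The values are log-two fold changes in thermal stability compared with solvent controls and come from duplicates. They were obtained by TMTpro 16plex LC-MS/MS, with channel sums equalised, on the supernatant after 21,000xg for 90 min. That supernatant came from crude K562 extract at 1 mg/mL protein treated with 10 μM compound for 30 min, heated for 3 min across 48°C-58°C, pooled and brought to 0.5% NP-40 at 4°C.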
For RACGAP1 (UniProt Q9H0H5), the log2 fold change was inactive: -0.007.

Consider RAD1 (UniProt O60671), for which the log2 fold change was inactive: 0.082.

With RAC2 (UniProt P15153), the log2 fold change is inactive: 0.094.

For RABEPK (UniProt Q7Z6M1), the log2 fold change was inactive: 0.

Take RANBP9 (UniProt Q96S59): the log2 fold change was inactive: -0.02.

With RAD51C (UniProt O43502), the log2 fold change was inactive: -0.015.

RABGEF1 isoform 3 (UniProt Q9UJ41): the log2 fold change is inactive: -0.003.

With RANBP6 (UniProt O60518), the log2 fold change is inactive: -0.034.

Regarding RABEP1 (UniProt Q15276), the log2 fold change was inactive: 0.007.

As to RALGAPA1 isoform 6 (UniProt Q6GYQ0), the log2 fold change was inactive: 0.047.

As to RABAC1 (UniProt Q9UI14), the log2 fold change is inactive: 0.027.

For the target RAB5B (UniProt P61020), the log2 fold change is inactive: 0.015.

Take RAB6B (UniProt Q9NRW1): the log2 fold change was inactive: 0.106.

On to RAB5A (UniProt P20339), for which the log2 fold change was inactive: -0.021.

Consider RAB24 (UniProt Q969Q5), for which the log2 fold change is inactive: 0.007.

For the target PYCR3 (UniProt Q53H96), the log2 fold change was inactive: 0.023.

As for RAB10 (UniProt P61026), the log2 fold change was inactive: 0.003.

With RAN (UniProt P62826), the log2 fold change was inactive: -0.024.

RAP2B (UniProt P61225): the log2 fold change was inactive: 0.02.

Take RAB8B (UniProt Q92930): the log2 fold change was inactive: -0.03.

Regarding RAB6A isoform 4 (UniProt P20340), the log2 fold change was inactive: 0.017.

For RAB20 (UniProt Q9NX57), the log2 fold change is inactive: 0.063.

As to RAP2C (UniProt Q9Y3L5), the log2 fold change was inactive: 0.084.

For RAP1GAP isoform 4 (UniProt P47736), the log2 fold change is inactive: -0.024.

For RAD51 (UniProt Q06609), the log2 fold change was inactive: -0.012.

Consider RAD23B (UniProt P54727), for which the log2 fold change was inactive: -0.011.

For the target RAP2A (UniProt P10114), the log2 fold change is inactive: 0.025.

On to RAB11A (UniProt P62491), for which the log2 fold change was inactive: 0.167.

On to QRSL1 (UniProt Q9H0R6), for which the log2 fold change was inactive: -0.171.

As to RAP1A (UniProt P62834), the log2 fold change is inactive: -0.009.

Consider RAP1B (UniProt P61224), for which the log2 fold change was inactive: -0.024.

As for RAPGEF2, A0A2R8YGD3, the log2 fold change is inactive: -0.059.

As for RANBP17 (UniProt Q9H2T7), the log2 fold change is inactive: 0.055.

Compound in another assay: CC(=O)c1cnc2ccc(-c3cc(Cl)c(O)c(Cl)c3)nc2c1N[C@H]1CC[C@H](CN(C)C)CC1
The assay is described as above. In short, it runs like this:
as §1
With RACGAP1 (UniProt Q9H0H5), the log2 fold change is inactive: -0.014.

On to RAD1 (UniProt O60671), for which the log2 fold change was inactive: 0.

For the target RAC2 (UniProt P15153), the log2 fold change is inactive: -0.04.

In the case of RABEPK (UniProt Q7Z6M1), the log2 fold change was inactive: -0.002.

On to RANBP9 (UniProt Q96S59), for which the log2 fold change was inactive: -0.028.

Consider RAD51C (UniProt O43502), for which the log2 fold change is inactive: 0.055.

Regarding RABGEF1 isoform 3 (UniProt Q9UJ41), the log2 fold change is inactive: -0.006.

In the case of RANBP6 (UniProt O60518), the log2 fold change was inactive: -0.05.

As for RABEP1 (UniProt Q15276), the log2 fold change is inactive: -0.01.

RALGAPA1 isoform 6 (UniProt Q6GYQ0): the log2 fold change was inactive: -0.06.

For RABAC1 (UniProt Q9UI14), the log2 fold change was inactive: 0.007.

In the case of RAB5B (UniProt P61020), the log2 fold change was inactive: -0.024.

Turning to RAB6B (UniProt Q9NRW1), the log2 fold change was inactive: 0.026.

RAB5A (UniProt P20339): the log2 fold change was inactive: 0.005.

As to RAB24 (UniProt Q969Q5), the log2 fold change is inactive: 0.017.

As to PYCR3 (UniProt Q53H96), the log2 fold change was inactive: -0.003.

As for RAB10 (UniProt P61026), the log2 fold change is inactive: -0.013.

Turning to RAN (UniProt P62826), the log2 fold change is inactive: 0.023.

In the case of RAP2B (UniProt P61225), the log2 fold change was inactive: -0.006.

In the case of RAB8B (UniProt Q92930), the log2 fold change was inactive: -0.018.

Take RAB6A isoform 4 (UniProt P20340): the log2 fold change is inactive: -0.013.

With RAB20 (UniProt Q9NX57), the log2 fold change is inactive: 0.008.

For RAP2C (UniProt Q9Y3L5), the log2 fold change was inactive: 0.006.

In the case of RAP1GAP isoform 4 (UniProt P47736), the log2 fold change is inactive: 0.018.

As to RAD51 (UniProt Q06609), the log2 fold change was inactive: 0.024.

Turning to RAD23B (UniProt P54727), the log2 fold change was inactive: 0.005.

Consider RAP2A (UniProt P10114), for which the log2 fold change is inactive: -0.004.

RAB11A (UniProt P62491): the log2 fold change was inactive: -0.061.

With QRSL1 (UniProt Q9H0R6), the log2 fold change is inactive: -0.059.

RAP1A (UniProt P62834): the log2 fold change was inactive: 0.024.

As for RAP1B (UniProt P61224), the log2 fold change is inactive: -0.005.

With RAPGEF2, A0A2R8YGD3, the log2 fold change is inactive: 0.007.

RANBP17 (UniProt Q9H2T7): the log2 fold change is inactive: 0.023.

Compound in a further assay: CC(C)(C)Cn1c(N)nc2ccc(-c3[nH]c(C(C)(C)C)nc3-c3ccc(F)cc3)nc21 [ralimetinib]
The assay is described as above. The method in brief:
as §1
Take RACGAP1 (UniProt Q9H0H5): the log2 fold change was inactive: 0.012.

As for RAD1 (UniProt O60671), the log2 fold change was inactive: 0.002.

As for RAC2 (UniProt P15153), the log2 fold change was inactive: 0.07.

With RABEPK (UniProt Q7Z6M1), the log2 fold change was inactive: 0.01.

For the target RANBP9 (UniProt Q96S59), the log2 fold change was inactive: -0.005.

Turning to RAD51C (UniProt O43502), the log2 fold change was inactive: 0.044.

For the target RABGEF1 isoform 3 (UniProt Q9UJ41), the log2 fold change was inactive: -0.004.

Take RANBP6 (UniProt O60518): the log2 fold change is inactive: 0.025.

Take RABEP1 (UniProt Q15276): the log2 fold change is inactive: -0.018.

As to RALGAPA1 isoform 6 (UniProt Q6GYQ0), the log2 fold change was inactive: 0.01.

With RABAC1 (UniProt Q9UI14), the log2 fold change was inactive: -0.017.

Take RAB5B (UniProt P61020): the log2 fold change is inactive: 0.015.

Regarding RAB6B (UniProt Q9NRW1), the log2 fold change was inactive: 0.013.

RAB5A (UniProt P20339): the log2 fold change was inactive: -0.033.

For RAB24 (UniProt Q969Q5), the log2 fold change was inactive: -0.011.

For the target PYCR3 (UniProt Q53H96), the log2 fold change was inactive: 0.007.

On to RAB10 (UniProt P61026), for which the log2 fold change is inactive: -0.01.

For the target RAN (UniProt P62826), the log2 fold change is inactive: -0.013.

As for RAP2B (UniProt P61225), the log2 fold change was inactive: -0.008.

Turning to RAB8B (UniProt Q92930), the log2 fold change was inactive: -0.035.

On to RAB6A isoform 4 (UniProt P20340), for which the log2 fold change was inactive: -0.025.

In the case of RAB20 (UniProt Q9NX57), the log2 fold change was inactive: -0.012.

For RAP2C (UniProt Q9Y3L5), the log2 fold change is inactive: 0.06.

Regarding RAP1GAP isoform 4 (UniProt P47736), the log2 fold change was inactive: 0.068.

Turning to RAD51 (UniProt Q06609), the log2 fold change was inactive: 0.032.

For the target RAD23B (UniProt P54727), the log2 fold change is inactive: 0.004.

As for RAP2A (UniProt P10114), the log2 fold change was inactive: 0.019.

RAB11A (UniProt P62491): the log2 fold change was inactive: 0.001.

For QRSL1 (UniProt Q9H0R6), the log2 fold change is inactive: 0.018.

Regarding RAP1A (UniProt P62834), the log2 fold change is inactive: -0.004.

As for RAP1B (UniProt P61224), the log2 fold change is inactive: 0.051.

As to RAPGEF2, A0A2R8YGD3, the log2 fold change is inactive: 0.008.

RANBP17 (UniProt Q9H2T7): the log2 fold change was inactive: -0.046.
